Drawing on patent CN115197321A, this text covers binding for two molecules.

By UniProt entry, the sequences of proteins in these tests, tags left out. Where a name states a change or a piece, a line headed by the entry shows the natural chain unless it says otherwise. Chains listed by the source or under a name are the forms on record and can include a tag or linker. Residues count along the entry.
UniProt P01589: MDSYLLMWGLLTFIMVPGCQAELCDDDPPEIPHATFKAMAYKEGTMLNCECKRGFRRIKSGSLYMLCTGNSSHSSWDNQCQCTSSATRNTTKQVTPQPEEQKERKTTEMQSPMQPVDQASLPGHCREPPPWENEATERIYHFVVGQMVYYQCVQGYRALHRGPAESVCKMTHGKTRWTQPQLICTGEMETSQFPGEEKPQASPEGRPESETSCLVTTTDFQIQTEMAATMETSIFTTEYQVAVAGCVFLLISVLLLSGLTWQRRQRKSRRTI
人CD25 (on CD25-positive cells: SU-DHL-1, U937, NK-92, human PBMC): residues 22-272 of P01589
CD25-hIgG1Fc(人CD25胞外域的C端融合人IgG1的Fc段): residues 22-240 of P01589
CD25-His(人CD25胞外域的C端融合6×His标签) (P01589, form named): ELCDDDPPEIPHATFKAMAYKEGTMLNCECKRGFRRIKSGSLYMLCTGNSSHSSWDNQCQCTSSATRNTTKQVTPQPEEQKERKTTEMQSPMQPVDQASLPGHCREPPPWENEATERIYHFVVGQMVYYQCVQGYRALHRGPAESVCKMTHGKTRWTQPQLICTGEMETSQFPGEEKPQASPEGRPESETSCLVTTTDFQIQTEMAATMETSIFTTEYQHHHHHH

Test [1] deals with CD25-His(人CD25胞外域的C端融合6×His标签) (human) (UniProt P01589). As to the kind of experiment: ELISA, coated human CD25-His 50 ng/well, hybridoma supernatant.
Test [2] has as its target CD25-hIgG1Fc(人CD25胞外域的C端融合人IgG1的Fc段) (human) (UniProt P01589). Kind of test: ELISA, coated CD25-hIgG1Fc (positive control of the lysate panel).
The target in test [3] is 人CD25 (on CD25-positive cells: SU-DHL-1, U937, NK-92, human PBMC) (human) (UniProt P01589). As to the kind of experiment: flow cytometry on SU-DHL-1 and U937 cells. (Flow cytometry measures light scatter and fluorescence of single cells or particles in a stream.)

No constants are given. Whether binding was seen depends on the method and setting. Some binding calls cover weakened binding; strength is not graded here.

B1: 杂交瘤抗体B7 (antibody, IgG1, V domains shown)
VH: EVQLQESGPGLVKPSQSLSLTCTVTGYSITSDYAWNWIRQFPGNKLEWMGYINYSGSTSYNPSLKSRISITRDTSKNQFFLQLNSVTTEDTATYYCARKGGFFDVWGAGTTVTVSS
VL: DIQMTQTTSSLSASLGDRVTISCSASQGISNYLNWYQQKPDGTVKLLIYYTSSLHSGVPSRFSGSGSGTDYSLTISNLEPEDIATYYCLQYSKLPWTFGGGTKLEIK
Consider B1, for which the binding result in test [1], in test [2] and in test [3] was “binds” each time.

B2: 杂交瘤抗体F10 (antibody, IgG2a, V domains shown)
VH: QVQLKQSGPGLVQPSQSLSITCTVSGFSLTSYGVHWVRQSPGKGLEWLGVIWRGGSTDYNAAFMSRLSITKDNSKSQVFFKMNSLQAGDTAVYYCAKNERFYGFDYWGQGTTLTVSS
VL: DIVMTQAAFSNPVTLGTSASISCRSSKSLLHSNGITYLYWYLQKPGQSPQLLIYQMSNLASGVPDRFSSSGSGTDFTLRISRVEAEDVGVYYCAQNLELPTFGSGTKLEIK
As for B2, the binding result in test [2] and in test [3] was “binds” in each case.
